Data as given in paper PMC11186368.

Sequences of proteins named here, by UniProt entry; tags and fusion partners are left off.
UniProt P53350: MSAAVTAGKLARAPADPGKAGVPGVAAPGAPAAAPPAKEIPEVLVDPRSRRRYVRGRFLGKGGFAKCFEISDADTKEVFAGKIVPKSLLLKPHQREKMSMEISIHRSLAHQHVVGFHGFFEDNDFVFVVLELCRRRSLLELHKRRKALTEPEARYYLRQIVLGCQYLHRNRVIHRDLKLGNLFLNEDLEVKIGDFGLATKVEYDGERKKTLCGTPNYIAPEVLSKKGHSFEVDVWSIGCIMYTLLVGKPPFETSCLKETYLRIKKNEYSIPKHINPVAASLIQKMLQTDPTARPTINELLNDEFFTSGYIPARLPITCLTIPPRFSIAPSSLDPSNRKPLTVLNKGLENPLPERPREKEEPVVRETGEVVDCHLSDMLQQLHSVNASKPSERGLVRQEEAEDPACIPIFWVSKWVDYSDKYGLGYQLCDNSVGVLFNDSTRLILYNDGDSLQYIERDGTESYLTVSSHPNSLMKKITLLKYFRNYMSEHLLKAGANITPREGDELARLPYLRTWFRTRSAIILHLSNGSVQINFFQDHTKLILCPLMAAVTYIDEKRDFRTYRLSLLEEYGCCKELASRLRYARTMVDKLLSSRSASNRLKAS
UniProt P27816: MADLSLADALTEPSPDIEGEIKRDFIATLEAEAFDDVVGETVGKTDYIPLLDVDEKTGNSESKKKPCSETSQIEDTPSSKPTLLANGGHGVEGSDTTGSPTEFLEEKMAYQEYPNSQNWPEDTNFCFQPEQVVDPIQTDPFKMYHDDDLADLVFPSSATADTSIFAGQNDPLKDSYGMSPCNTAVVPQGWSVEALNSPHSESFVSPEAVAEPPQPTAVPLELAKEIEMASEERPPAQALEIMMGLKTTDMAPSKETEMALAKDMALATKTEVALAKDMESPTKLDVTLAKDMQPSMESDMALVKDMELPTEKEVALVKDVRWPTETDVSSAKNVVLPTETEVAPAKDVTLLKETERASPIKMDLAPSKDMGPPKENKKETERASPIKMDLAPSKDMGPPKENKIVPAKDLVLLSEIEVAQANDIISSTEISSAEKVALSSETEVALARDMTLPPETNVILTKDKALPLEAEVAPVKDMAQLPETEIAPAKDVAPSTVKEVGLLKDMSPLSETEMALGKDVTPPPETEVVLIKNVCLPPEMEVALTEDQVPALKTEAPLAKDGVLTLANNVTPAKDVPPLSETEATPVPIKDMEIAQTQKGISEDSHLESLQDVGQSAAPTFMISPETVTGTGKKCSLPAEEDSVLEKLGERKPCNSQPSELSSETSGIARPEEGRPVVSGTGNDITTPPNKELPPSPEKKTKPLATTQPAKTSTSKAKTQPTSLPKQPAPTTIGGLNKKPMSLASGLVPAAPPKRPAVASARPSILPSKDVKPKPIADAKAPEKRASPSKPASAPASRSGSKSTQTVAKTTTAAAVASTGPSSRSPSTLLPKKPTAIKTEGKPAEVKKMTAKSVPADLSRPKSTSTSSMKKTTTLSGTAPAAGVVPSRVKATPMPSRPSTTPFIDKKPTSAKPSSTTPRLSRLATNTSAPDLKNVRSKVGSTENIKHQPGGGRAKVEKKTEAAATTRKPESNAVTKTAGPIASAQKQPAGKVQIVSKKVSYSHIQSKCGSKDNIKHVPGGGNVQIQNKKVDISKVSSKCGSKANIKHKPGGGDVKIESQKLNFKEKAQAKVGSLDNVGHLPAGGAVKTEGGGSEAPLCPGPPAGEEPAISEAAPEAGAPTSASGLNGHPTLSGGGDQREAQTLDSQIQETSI
UniProt Q96JE9: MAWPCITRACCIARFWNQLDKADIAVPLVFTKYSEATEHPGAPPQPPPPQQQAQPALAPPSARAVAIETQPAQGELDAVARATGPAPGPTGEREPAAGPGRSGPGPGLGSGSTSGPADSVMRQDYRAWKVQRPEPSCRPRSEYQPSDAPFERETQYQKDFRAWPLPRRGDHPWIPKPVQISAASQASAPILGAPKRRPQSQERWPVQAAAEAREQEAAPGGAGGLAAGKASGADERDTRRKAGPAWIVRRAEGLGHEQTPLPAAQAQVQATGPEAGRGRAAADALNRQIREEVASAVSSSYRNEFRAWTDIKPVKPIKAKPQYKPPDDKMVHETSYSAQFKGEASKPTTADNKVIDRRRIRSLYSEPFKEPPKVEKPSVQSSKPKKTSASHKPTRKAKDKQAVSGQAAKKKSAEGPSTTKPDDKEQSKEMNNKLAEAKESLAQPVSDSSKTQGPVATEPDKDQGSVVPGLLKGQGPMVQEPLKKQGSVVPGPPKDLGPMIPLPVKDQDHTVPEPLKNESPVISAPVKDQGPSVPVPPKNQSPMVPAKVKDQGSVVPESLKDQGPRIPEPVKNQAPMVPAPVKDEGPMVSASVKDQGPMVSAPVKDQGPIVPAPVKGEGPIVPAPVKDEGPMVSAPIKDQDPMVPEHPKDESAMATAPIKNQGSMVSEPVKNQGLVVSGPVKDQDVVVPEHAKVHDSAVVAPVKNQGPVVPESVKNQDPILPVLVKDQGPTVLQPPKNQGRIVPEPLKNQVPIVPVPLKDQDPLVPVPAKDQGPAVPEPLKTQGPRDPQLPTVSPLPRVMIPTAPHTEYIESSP

target: T1, CYR61, bait of the tandem affinity purification for mass spectrometry (human) (UniProt O00622); experiment: affinity purification with mass spectrometry; tandem affinity purification of CYR61; CYR61 Co-IP samples digested with trypsin, Orbitrap Fusion; cells not given
T1 sequence: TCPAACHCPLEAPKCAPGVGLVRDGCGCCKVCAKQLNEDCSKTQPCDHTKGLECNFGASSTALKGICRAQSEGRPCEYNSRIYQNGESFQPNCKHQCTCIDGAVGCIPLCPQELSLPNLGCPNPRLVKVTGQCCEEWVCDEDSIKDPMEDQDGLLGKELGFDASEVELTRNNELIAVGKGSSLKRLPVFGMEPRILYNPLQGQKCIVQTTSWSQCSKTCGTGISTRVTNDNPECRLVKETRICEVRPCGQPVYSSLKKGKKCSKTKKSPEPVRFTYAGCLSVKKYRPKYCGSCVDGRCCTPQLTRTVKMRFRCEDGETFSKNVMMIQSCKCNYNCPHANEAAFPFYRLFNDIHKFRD

Substance | binding
PLK1, endogenous (from UniProt P53350 1-603) (enzyme) | binds
MAP4 (from UniProt P27816 1-1152) | binds
MAP6 (from UniProt Q96JE9 1-813) | binds

Results are given in words; binding and its absence hold for the method and conditions named. In cells and extracts the contact can be indirect. A yes stands for co-enrichment or nearness to the bait. Other partners may have been found.
